Reference: patent US20160090556A1, “PRODUCTS COMPRISING MALODOR REDUCTION MATERIALS” (The Procter & Gamble Company, priority 2014, published 2016)

Assay: Melamine formaldehyde PMC leakage
Conditions: for Comment Code: Melamine formaldehyde PMC leakage: code letter J

Structure (SMILES)	Melamine formaldehyde PMC leakage (Comment Code J)	Comment Code: Melamine formaldehyde PMC leakage
O=C1CCCC=CCCCCCCCCCC1 [Material 788]	J (Melamine formaldehyde PMC leakage less than or equal to 5%)	J (Melamine formaldehyde PMC leakage less than or equal to 5%)
COc1ccc(CCC(C)=O)cc1 [Material 803]	J (Melamine formaldehyde PMC leakage less than or equal to 5%)	
CC1C(=O)CC2(C)CCCC(C)(C)C23CC13 (stereo not shown) [Material 804]	J (Melamine formaldehyde PMC leakage less than or equal to 5%)	J (Melamine formaldehyde PMC leakage less than or equal to 5%)
CCCCCCCCCC=CC=O [Material 806]	J (Melamine formaldehyde PMC leakage less than or equal to 5%)	
CC(CC=O)CCc1ccccc1 (stereo not shown) [Material 807]	J (Melamine formaldehyde PMC leakage less than or equal to 5%)	
CCC=CCCOC(=O)CC(C)C [Material 814]	J (Melamine formaldehyde PMC leakage less than or equal to 5%)	
CC(C)c1ccc(CCC=O)cc1 [Material 826]	J (Melamine formaldehyde PMC leakage less than or equal to 5%)	
CCCCCCCCC=CC#N [Material 827]	J (Melamine formaldehyde PMC leakage less than or equal to 5%)	
CCCCCCCCC=CC=O [Material 828]	J (Melamine formaldehyde PMC leakage less than or equal to 5%)	
CCCC(=O)OCCc1ccccc1 [Material 831]	J (Melamine formaldehyde PMC leakage less than or equal to 5%)	
O=CC(=Cc1ccco1)c1ccccc1 [Material 833]	J (Melamine formaldehyde PMC leakage less than or equal to 5%)	
CCC(=O)OCCc1ccccc1 [Material 835]		J (Melamine formaldehyde PMC leakage less than or equal to 5%)
CCCCCCCC1(C)OCC(C)O1 (stereo not shown) [Material 838]		J (Melamine formaldehyde PMC leakage less than or equal to 5%)
CC(C)Cc1ccc2ccccc2n1 [Material 849]	J (Melamine formaldehyde PMC leakage less than or equal to 5%)	
CCCCCC=C1CCCC1=O [Material 850]	J (Melamine formaldehyde PMC leakage less than or equal to 5%)	
CCCCCCCC1CCCO1 (stereo not shown) [Material 852]	J (Melamine formaldehyde PMC leakage less than or equal to 5%)	
CCCCCCCCCCO [Material 868]	J (Melamine formaldehyde PMC leakage less than or equal to 5%)	
C=CCCCCCCCCCO [Material 870]	J (Melamine formaldehyde PMC leakage less than or equal to 5%)	
C=CCCCCCCCCC=O [Material 871]	J (Melamine formaldehyde PMC leakage less than or equal to 5%)	
CC1=C2CC(C(C)(C)O)CCC2(C)CCC1 (stereo not shown) [Material 872]	J (Melamine formaldehyde PMC leakage less than or equal to 5%)	
C=CC=CC=CCCCCC [Material 876]	J (Melamine formaldehyde PMC leakage less than or equal to 5%)	
CCCCCCCC/C=C\CC=O [Material 884]	J (Melamine formaldehyde PMC leakage less than or equal to 5%)	
CCCCCCC[C@H]1CCC(=O)O1 [Material 885]	J (Melamine formaldehyde PMC leakage less than or equal to 5%)	

Structure (SMILES)	Melamine formaldehyde PMC leakage (Comment Code J)	Comment Code: Melamine formaldehyde PMC leakage
CCCCCCC[C@@H]1CCC(=O)O1 [Material 886]	J (Melamine formaldehyde PMC leakage less than or equal to 5%)	
CC(=O)OC(C)CC/C=C(\C)CCC=C(C)C (stereo not shown) [Material 890]	J (Melamine formaldehyde PMC leakage less than or equal to 5%)	
C/C(=C/C#N)CCc1ccccc1 [Material 892]	J (Melamine formaldehyde PMC leakage less than or equal to 5%)	
C/C(=C\C#N)CCc1ccccc1 [Material 894]	J (Melamine formaldehyde PMC leakage less than or equal to 5%)	
CC1CCC(C(C)C)C(=O)C1 (stereo not shown) [Material 905]	J (Melamine formaldehyde PMC leakage less than or equal to 5%)	
CC(=CCC1CC=C(C)C1(C)C)CO (stereo not shown) [Material 908]	J (Melamine formaldehyde PMC leakage less than or equal to 5%)	
C/C=C(\C)C(=O)OCCCCCC [Material 909]		J (Melamine formaldehyde PMC leakage less than or equal to 5%)
CC1=CC2CC(C3OCCO3)C1CC2C(C)C (stereo not shown) [Material 912]	J (Melamine formaldehyde PMC leakage less than or equal to 5%)	
CC(C)c1cccc(C(C)CC=O)c1 (stereo not shown) [Material 914]	J (Melamine formaldehyde PMC leakage less than or equal to 5%)	
C=CC(C)(CCC=C(C)C)OC(C)OCC (stereo not shown) [Material 916]	J (Melamine formaldehyde PMC leakage less than or equal to 5%)	
C=CCOC(=O)COC1CCCCC1 [Material 918]		J (Melamine formaldehyde PMC leakage less than or equal to 5%)
CCC(=O)OC1CC2CC1C1CC=CC21 (stereo not shown) [Material 919]	J (Melamine formaldehyde PMC leakage less than or equal to 5%)	J (Melamine formaldehyde PMC leakage less than or equal to 5%)
CC1=C2CCC(C)C2CC(C(C)(C)O)CC1 (stereo not shown) [Material 920]	J (Melamine formaldehyde PMC leakage less than or equal to 5%)	
O=C(Cc1ccccc1)OCc1ccccc1 [Material 922]	J (Melamine formaldehyde PMC leakage less than or equal to 5%)	
O=C(c1ccccc1)C(O)c1ccccc1 (stereo not shown) [Material 923]	J (Melamine formaldehyde PMC leakage less than or equal to 5%)	
C/C=C/c1cc(OC)c(OC)cc1OC [Material 924]	J (Melamine formaldehyde PMC leakage less than or equal to 5%)	
CC(C)(C=O)CC1=CCC2CC1C2(C)C (stereo not shown) [Material 925]	J (Melamine formaldehyde PMC leakage less than or equal to 5%)	
CC(C)=CCCC(C)C12CC=C(C)C1C2 (stereo not shown) [Material 926]	J (Melamine formaldehyde PMC leakage less than or equal to 5%)	
CC(=O)c1cc2c(cc1C)C(C)(C)C(C)C2(C)C (stereo not shown) [Material 927]	J (Melamine formaldehyde PMC leakage less than or equal to 5%)	
CCCCCCCCCCC=CC=O [Material 930]	J (Melamine formaldehyde PMC leakage less than or equal to 5%)	
Cc1ccc(OC(=O)C(C)C)cc1 [Material 937]	J (Melamine formaldehyde PMC leakage less than or equal to 5%)	
CCCCCC(=O)Oc1ccc(C)cc1 [Material 939]	J (Melamine formaldehyde PMC leakage less than or equal to 5%)	
CCCCC/C=C/C=C\C(=O)OCC [Material 942]	J (Melamine formaldehyde PMC leakage less than or equal to 5%)	

Structure (SMILES)	Melamine formaldehyde PMC leakage (Comment Code J)	Comment Code: Melamine formaldehyde PMC leakage
N#CC(=C1CCCCC1)c1ccccc1 [Material 945]	J (Melamine formaldehyde PMC leakage less than or equal to 5%)	
C=C(C)C1CC=C(COC(C)=O)CC1 (stereo not shown) [Material 947]	J (Melamine formaldehyde PMC leakage less than or equal to 5%)	
CC(C)OCCc1ccccc1 [Material 950]	J (Melamine formaldehyde PMC leakage less than or equal to 5%)	
CCCCCC=CC=CC(=O)OCC [Material 951]	J (Melamine formaldehyde PMC leakage less than or equal to 5%)	
c1ccc(CCOC2CCCCC2)cc1 [Material 953]	J (Melamine formaldehyde PMC leakage less than or equal to 5%)	
CCC(C)C(=O)OCCc1ccccc1 (stereo not shown) [Material 954]	J (Melamine formaldehyde PMC leakage less than or equal to 5%)	
CC(C)C(=O)OCCc1ccccc1 [Material 958]		J (Melamine formaldehyde PMC leakage less than or equal to 5%)
O=C(Cc1ccccc1)OCCc1ccccc1 [Material 959]	J (Melamine formaldehyde PMC leakage less than or equal to 5%)	
C/C=C(\C)C(=O)OCCc1ccccc1 [Material 960]		J (Melamine formaldehyde PMC leakage less than or equal to 5%)
CC(CCO)CCc1ccccc1 (stereo not shown) [Material 962]	J (Melamine formaldehyde PMC leakage less than or equal to 5%)	
O=C(Oc1ccccc1)c1ccccc1 [Material 965]	J (Melamine formaldehyde PMC leakage less than or equal to 5%)	
O=C(OCCc1ccccc1)c1ccccc1 [Material 967]	J (Melamine formaldehyde PMC leakage less than or equal to 5%)	
C=C(C)C(=O)OCCc1ccccc1 [Material 971]		J (Melamine formaldehyde PMC leakage less than or equal to 5%)
CC(=O)CCc1ccc2c(c1)OCO2 [Material 976]	J (Melamine formaldehyde PMC leakage less than or equal to 5%)	
CC1C[C@H]2C3CCC(C3)[C@H]2CC1=O (stereo partly shown) [Material 980]	J (Melamine formaldehyde PMC leakage less than or equal to 5%)	
CC1=CCC(/C=C/C(C)(C)C(C)O)C1(C)C (stereo not shown) [Material 985]	J (Melamine formaldehyde PMC leakage less than or equal to 5%)	
CC(C)=CCCC1=CCC(C)(C=O)CC1 (stereo not shown) [Material 988]	J (Melamine formaldehyde PMC leakage less than or equal to 5%)	
CC(C)(C)c1ccc(CC=O)cc1 [Material 994]		J (Melamine formaldehyde PMC leakage less than or equal to 5%)
Cc1ccc(OC(=O)Cc2ccccc2)cc1 [Material 998]	J (Melamine formaldehyde PMC leakage less than or equal to 5%)	
CCC=CCC=CC=CC(=O)OCC [Material 1000]	J (Melamine formaldehyde PMC leakage less than or equal to 5%)	
CC1CC(C)(C)OC(Cc2ccccc2)O1 (stereo not shown) [Material 1003]	J (Melamine formaldehyde PMC leakage less than or equal to 5%)	
